Assay results as given in the supplement of paper PMC7666118.
Some of the results follow.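 How the source made its calls: active = dose-dependent thermal stabilisation significant by F-test of dose-response against flat model at 10% FDR; inactive = not significant.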

Amino acid sequences for entries named in this document (tags omitted). A change or cut given only in a name is not applied to a line headed by its entry.
UniProt O95568: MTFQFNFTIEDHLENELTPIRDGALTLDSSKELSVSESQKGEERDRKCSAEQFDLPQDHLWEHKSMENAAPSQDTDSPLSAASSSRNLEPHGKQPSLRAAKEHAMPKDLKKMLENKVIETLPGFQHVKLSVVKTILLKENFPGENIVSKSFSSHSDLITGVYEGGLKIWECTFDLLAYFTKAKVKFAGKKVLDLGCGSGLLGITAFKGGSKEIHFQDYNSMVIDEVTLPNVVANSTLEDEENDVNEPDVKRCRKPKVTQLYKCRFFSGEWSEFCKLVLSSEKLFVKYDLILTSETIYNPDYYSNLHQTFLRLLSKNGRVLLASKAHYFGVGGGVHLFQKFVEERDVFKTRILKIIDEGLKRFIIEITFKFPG
UniProt Q9BUK6: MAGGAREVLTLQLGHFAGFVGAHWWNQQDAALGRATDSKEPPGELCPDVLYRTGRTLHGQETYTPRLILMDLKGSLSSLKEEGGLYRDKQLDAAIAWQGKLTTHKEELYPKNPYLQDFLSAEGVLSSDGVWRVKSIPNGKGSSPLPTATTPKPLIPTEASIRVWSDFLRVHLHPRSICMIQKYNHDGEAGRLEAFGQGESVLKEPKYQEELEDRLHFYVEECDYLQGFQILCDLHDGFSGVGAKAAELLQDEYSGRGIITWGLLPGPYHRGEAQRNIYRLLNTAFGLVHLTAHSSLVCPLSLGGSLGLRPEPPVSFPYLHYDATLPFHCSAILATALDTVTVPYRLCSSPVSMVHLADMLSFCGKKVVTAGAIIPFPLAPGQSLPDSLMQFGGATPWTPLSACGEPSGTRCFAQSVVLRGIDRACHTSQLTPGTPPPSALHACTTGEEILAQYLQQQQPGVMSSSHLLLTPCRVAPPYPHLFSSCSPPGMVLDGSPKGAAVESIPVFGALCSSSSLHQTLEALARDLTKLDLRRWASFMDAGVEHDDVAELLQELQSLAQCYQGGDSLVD
UniProt A4D2B0: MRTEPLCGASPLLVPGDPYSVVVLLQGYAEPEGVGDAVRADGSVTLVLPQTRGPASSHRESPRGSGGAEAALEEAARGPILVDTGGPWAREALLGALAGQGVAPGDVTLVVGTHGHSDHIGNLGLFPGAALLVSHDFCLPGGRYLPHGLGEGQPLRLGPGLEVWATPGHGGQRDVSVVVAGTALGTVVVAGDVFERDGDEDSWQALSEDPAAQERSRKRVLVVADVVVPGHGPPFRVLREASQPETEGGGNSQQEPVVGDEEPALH
UniProt Q9UBK8: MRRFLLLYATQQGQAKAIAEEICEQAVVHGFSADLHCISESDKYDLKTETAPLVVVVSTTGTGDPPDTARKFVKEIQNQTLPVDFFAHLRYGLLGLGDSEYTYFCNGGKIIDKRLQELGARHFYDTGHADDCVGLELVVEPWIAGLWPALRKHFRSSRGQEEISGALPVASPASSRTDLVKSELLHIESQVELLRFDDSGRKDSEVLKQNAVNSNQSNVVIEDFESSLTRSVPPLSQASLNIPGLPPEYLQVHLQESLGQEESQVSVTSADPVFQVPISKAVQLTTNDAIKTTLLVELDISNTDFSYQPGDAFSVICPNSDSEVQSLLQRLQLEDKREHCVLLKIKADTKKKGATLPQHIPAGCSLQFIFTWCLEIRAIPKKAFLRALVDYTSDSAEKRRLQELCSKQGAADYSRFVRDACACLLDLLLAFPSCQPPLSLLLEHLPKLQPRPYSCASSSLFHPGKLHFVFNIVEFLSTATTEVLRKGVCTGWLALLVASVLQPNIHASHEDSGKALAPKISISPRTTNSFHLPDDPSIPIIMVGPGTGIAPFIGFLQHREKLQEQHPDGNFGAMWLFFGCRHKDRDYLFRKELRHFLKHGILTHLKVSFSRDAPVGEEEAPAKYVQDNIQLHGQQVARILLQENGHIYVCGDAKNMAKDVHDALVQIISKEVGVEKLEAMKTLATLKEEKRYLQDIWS
UniProt Q9Y605: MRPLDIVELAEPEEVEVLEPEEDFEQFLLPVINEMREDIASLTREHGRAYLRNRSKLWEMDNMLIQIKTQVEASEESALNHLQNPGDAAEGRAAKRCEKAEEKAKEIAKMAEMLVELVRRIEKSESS
UniProt Q969H8: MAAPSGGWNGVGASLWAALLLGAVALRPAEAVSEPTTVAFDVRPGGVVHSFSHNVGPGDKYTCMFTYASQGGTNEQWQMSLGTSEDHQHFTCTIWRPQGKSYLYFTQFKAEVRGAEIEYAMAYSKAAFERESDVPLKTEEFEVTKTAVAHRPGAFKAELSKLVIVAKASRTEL
UniProt P35579, whole entry: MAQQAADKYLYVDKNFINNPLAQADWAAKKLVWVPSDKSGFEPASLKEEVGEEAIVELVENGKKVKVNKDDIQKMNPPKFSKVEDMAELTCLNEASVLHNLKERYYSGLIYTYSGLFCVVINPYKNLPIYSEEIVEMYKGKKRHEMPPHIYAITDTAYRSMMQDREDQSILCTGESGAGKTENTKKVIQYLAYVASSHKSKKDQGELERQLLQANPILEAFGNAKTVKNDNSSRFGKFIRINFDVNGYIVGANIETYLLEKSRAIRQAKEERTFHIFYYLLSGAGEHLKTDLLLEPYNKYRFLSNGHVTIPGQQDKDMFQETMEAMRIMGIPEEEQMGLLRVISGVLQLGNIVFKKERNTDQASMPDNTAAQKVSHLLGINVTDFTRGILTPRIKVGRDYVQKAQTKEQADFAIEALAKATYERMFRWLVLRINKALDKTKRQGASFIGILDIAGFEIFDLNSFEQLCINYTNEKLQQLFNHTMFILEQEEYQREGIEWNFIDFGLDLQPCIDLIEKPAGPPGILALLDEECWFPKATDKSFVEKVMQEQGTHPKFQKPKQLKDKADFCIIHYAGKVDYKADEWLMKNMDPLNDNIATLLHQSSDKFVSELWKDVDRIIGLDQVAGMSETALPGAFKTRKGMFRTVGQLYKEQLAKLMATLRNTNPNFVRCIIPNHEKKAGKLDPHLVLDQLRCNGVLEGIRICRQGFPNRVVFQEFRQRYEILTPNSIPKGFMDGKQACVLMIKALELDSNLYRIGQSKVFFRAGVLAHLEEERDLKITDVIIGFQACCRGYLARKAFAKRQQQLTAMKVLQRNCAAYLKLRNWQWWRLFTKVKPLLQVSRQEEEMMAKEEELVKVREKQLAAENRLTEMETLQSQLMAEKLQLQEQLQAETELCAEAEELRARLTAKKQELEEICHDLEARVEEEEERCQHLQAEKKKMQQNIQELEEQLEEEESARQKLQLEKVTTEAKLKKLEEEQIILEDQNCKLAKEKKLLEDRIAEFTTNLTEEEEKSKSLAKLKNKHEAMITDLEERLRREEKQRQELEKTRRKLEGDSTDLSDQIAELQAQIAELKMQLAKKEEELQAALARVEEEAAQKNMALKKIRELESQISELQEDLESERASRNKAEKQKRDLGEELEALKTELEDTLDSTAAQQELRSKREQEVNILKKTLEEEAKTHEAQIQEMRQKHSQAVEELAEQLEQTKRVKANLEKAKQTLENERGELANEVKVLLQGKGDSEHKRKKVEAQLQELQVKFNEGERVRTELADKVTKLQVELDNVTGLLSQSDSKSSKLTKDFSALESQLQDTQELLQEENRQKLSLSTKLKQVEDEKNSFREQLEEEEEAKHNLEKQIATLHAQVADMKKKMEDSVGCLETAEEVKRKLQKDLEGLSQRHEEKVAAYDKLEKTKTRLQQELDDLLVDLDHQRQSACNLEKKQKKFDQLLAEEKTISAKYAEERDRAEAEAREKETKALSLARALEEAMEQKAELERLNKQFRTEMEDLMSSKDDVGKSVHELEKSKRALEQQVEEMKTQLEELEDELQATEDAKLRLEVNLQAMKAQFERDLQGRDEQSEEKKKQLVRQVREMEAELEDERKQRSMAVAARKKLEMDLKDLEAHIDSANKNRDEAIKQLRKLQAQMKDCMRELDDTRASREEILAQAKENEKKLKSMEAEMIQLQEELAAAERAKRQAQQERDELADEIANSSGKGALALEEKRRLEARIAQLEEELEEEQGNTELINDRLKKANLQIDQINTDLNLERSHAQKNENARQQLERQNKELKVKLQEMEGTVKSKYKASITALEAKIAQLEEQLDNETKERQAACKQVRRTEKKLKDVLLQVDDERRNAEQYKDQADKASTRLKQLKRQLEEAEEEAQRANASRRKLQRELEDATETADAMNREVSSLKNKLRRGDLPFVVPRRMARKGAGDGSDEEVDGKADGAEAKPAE
UniProt Q14814: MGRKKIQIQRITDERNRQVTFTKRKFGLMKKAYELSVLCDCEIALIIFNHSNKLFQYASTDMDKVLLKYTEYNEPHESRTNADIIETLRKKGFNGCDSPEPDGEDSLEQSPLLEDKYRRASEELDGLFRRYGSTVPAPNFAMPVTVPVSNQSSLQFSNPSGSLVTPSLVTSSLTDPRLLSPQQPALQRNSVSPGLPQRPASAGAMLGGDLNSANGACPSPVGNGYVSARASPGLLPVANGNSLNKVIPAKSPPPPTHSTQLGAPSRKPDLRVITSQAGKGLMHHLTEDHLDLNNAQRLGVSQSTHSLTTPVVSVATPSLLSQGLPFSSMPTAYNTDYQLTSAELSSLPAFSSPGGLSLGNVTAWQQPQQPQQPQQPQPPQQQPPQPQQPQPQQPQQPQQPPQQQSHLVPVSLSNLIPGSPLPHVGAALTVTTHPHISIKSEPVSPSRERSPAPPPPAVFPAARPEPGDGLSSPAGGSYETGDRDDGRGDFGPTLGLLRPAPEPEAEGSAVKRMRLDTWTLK
UniProt Q13330: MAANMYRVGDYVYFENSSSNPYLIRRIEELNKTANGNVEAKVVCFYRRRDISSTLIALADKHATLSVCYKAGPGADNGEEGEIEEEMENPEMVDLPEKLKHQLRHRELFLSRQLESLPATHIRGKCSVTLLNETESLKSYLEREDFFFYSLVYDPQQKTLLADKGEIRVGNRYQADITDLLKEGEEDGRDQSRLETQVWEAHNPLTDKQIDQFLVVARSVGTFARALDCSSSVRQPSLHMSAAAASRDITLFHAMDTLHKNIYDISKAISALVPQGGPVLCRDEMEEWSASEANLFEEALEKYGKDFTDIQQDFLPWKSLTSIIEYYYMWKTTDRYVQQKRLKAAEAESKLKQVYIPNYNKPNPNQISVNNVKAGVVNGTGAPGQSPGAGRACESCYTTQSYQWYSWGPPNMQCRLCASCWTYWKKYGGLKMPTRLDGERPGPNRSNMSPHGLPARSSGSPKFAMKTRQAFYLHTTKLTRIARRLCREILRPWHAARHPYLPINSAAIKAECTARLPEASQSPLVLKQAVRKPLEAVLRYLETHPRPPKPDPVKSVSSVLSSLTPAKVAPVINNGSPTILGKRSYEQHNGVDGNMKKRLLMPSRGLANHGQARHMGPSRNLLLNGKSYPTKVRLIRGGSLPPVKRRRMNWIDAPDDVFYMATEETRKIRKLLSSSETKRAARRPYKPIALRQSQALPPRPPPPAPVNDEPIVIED
UniProt Q6P1R3: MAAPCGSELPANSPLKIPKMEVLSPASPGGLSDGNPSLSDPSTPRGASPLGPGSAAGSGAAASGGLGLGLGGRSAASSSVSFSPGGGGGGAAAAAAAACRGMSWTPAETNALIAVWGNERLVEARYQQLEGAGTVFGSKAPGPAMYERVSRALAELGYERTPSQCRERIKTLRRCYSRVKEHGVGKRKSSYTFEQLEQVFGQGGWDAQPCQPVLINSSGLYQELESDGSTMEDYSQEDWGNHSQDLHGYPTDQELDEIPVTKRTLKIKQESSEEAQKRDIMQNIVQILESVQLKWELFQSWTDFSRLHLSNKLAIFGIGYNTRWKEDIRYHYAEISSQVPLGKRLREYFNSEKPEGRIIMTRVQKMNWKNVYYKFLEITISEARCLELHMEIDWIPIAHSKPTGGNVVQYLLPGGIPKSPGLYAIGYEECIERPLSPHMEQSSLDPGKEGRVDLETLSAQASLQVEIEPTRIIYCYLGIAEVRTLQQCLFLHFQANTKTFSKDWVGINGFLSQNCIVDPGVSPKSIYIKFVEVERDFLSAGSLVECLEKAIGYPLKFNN
UniProt Q86UE4: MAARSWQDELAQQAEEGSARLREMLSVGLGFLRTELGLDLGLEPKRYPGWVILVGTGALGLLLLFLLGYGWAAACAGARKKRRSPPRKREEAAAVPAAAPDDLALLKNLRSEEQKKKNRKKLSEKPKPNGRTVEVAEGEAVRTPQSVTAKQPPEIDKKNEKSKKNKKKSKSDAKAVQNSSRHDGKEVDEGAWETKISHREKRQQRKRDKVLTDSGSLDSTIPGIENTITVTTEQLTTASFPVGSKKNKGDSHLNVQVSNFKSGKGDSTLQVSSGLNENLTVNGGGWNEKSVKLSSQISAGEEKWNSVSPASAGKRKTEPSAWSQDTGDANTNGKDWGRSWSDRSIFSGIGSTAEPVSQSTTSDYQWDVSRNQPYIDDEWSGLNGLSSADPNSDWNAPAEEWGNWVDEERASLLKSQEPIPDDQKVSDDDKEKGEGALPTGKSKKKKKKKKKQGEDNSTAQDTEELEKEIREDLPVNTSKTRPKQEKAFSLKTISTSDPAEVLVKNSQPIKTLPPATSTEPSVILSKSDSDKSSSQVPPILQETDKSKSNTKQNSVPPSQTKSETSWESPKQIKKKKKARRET

compound: Nc1nc2c(ncn2[C@@H]2O[C@H](COP(=O)(O)OP(=O)(O)OP(=O)(O)O)[C@@H](O)[C@H]2O)c(=O)[nH]1; experiment: dose-dependent thermal stabilisation call (2D-TPP, DLPTP, 10% FDR) (binary (1 = stabilised)); higher = stabilised by the compound; details: system: Jurkat gel-filtered lysate; concentration range 1-500 µM
Procedure: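 2D thermal proteome profiling in gel-filtered Jurkat E6.1 lysate (2 mg/ml) treated with NaGTP (0, 1, 10, 100, 500 uM) for 10 min at room temperature, then heated 3 min at one of 12 temperatures (42-63.9 C). Soluble protein was quantified by TMT10 MS. The value is the DLPTP call of the paper: dose-dependent thermal stabilisation over all temperatures at 10% FDR (F-test of a dose-response against a flat model); one experiment, one call per tested protein.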

Row | Target | dose-dependent thermal stabilisation call
1 | LRRC45 (UniProt Q96CN5) | inactive: 0
2 | MOCS3 (UniProt O95396) | active: 1
3 | MAP7D1 (UniProt Q3KQU3) | inactive: 0
4 | MAP3K20 (UniProt Q9NYL2) | inactive: 0
5 | MTSS1L (UniProt Q765P7) | inactive: 0
6 | LUZP1 (UniProt Q86V48) | inactive: 0
7 | MKL1 (UniProt Q969V6) | inactive: 0
8 | MIER1 (UniProt Q8N108) | inactive: 0
9 | MAP4K5 (UniProt Q9Y4K4) | active: 1
10 | MPPED2 (UniProt Q15777) | inactive: 0
11 | METTL18 (UniProt O95568) | inactive: 0
12 | MSTO1 (UniProt Q9BUK6) | active: 1
13 | METTL1 (UniProt Q9UBP6) | active: 1
14 | MAP4K4 (UniProt O95819) | inactive: 0
15 | MCMBP (UniProt Q9BTE3) | active: 1
16 | MED28 (UniProt Q9H204) | inactive: 0
17 | MBLAC1 (UniProt A4D2B0) | inactive: 0
18 | MYO18A (UniProt Q92614) | active: 1
19 | MTRR (UniProt Q9UBK8) | inactive: 0
20 | MRFAP1 (UniProt Q9Y605) | inactive: 0

Row | Target | dose-dependent thermal stabilisation call
21 | MON1B (UniProt Q7L1V2) | inactive: 0
22 | MSRB1 (UniProt Q9NZV6) | inactive: 0
23 | MAFK (UniProt O60675) | inactive: 0
24 | MDP1 (UniProt Q86V88) | inactive: 0
25 | MRTO4 (UniProt Q9UKD2) | active: 1
26 | MAGED1 (UniProt Q9Y5V3) | inactive: 0
27 | MVB12B (UniProt Q9H7P6) | active: 1
28 | MPI (UniProt P34949) | inactive: 0
29 | MYDGF (UniProt Q969H8) | inactive: 0
30 | MZB1 (UniProt Q8WU39) | inactive: 0
31 | MGA (UniProt Q8IWI9) | inactive: 0
32 | MSI2 (UniProt Q96DH6) | inactive: 0
33 | MYH9 (UniProt P35579) | inactive: 0
34 | MEF2D (UniProt Q14814) | inactive: 0
35 | MTA1 (UniProt Q13330) | inactive: 0
36 | MAPRE3 (UniProt Q9UPY8) | inactive: 0
37 | MPRIP (UniProt Q6WCQ1) | inactive: 0
38 | MSANTD2 (UniProt Q6P1R3) | inactive: 0
39 | MTDH (UniProt Q86UE4) | inactive: 0
40 | MTHFD2 (UniProt P13995) | inactive: 0

Quoted from the listing (2 entries):
Row | Target | dose-dependent thermal stabilisation call
22 | MSRB1 (UniProt Q9NZV6) | inactive: 0
23 | MAFK (UniProt O60675) | inactive: 0
